These are yes or no findings as the source states them, for the method shown. For some assays here: Binding seen in cells or lysates may run through a third protein. Some entries that bind do so weakly or less than the wild type. For some assays here: Where a sequence is shown, tags or fusion partners need not be part of it. Each block holds one binder with its values, some of them ahead of it.
What was measured:
[1] = molecular target: 35S-hTERT (human TERT synthesized by in vitro transcription and translation) (human) (UniProt O14746); experiment: GST pulldown of in vitro translated protein, autoradiography
[2] = molecular target: GFP-hTERT (human TERT produced in cells as a GFP fusion protein) (human) (UniProt O14746); experiment: GST pulldown from cell extracts, immunoblot with anti-GFP
[3] = molecular target: HA-hTERT (human TERT produced in cells as a HA epitope tagged protein) (human) (UniProt O14746); experiment: GST pulldown from cell extracts, immunoblot with anti-HA
[4] = molecular target: hTERT (telomerase catalytic subunit, as named without its construct in legends and sentences on FIG. 7A-C) (human) (UniProt O14746); experiment: GST pulldown (FIG. 7A-C)
[5] = molecular target: hTERT (telomerase catalytic subunit, as named without its construct in legends and sentences on FIG. 7A-C) (human) (UniProt O14746); experiment: GST pulldown of HA-hTERT, GFP-hTERT or 35S-hTERT
[6] = molecular target: Pin2 (expressed from the Pin2 expression construct in HeLa cells) (human) (UniProt P54274); experiment: co-immunoprecipitation from co-transfected HeLa cells, anti-PinX1 IP, anti-Pin2/TRF1 immunoblot
[7] = molecular target: Pin2 (expressed from the Pin2 expression construct in HeLa cells) (human) (UniProt P54274); experiment: co-immunoprecipitation from co-transfected HeLa cells, anti-PinX1 IP, anti-Pin2 immunoblot
[8] = molecular target: Pin2 isoform of Pin2/TRF1 fused to the GAL4 DNA-binding domain (pAS2 vector, yeast two-hybrid bait) (human); experiment: yeast two-hybrid screen, Pin2 bait against a HeLa cDNA library, His and LacZ screening
[9] = molecular target: [35S]-Pin2 (Pin2 synthesized by in vitro transcription and translation) (human) (UniProt P54274); experiment: GST pulldown of in vitro translated protein, autoradiography

Chains of the proteins cited; added tags and fusions are not shown. Lines headed by an entry give the natural chain unless they say otherwise; changes in a name come on top.
UniProt O14746: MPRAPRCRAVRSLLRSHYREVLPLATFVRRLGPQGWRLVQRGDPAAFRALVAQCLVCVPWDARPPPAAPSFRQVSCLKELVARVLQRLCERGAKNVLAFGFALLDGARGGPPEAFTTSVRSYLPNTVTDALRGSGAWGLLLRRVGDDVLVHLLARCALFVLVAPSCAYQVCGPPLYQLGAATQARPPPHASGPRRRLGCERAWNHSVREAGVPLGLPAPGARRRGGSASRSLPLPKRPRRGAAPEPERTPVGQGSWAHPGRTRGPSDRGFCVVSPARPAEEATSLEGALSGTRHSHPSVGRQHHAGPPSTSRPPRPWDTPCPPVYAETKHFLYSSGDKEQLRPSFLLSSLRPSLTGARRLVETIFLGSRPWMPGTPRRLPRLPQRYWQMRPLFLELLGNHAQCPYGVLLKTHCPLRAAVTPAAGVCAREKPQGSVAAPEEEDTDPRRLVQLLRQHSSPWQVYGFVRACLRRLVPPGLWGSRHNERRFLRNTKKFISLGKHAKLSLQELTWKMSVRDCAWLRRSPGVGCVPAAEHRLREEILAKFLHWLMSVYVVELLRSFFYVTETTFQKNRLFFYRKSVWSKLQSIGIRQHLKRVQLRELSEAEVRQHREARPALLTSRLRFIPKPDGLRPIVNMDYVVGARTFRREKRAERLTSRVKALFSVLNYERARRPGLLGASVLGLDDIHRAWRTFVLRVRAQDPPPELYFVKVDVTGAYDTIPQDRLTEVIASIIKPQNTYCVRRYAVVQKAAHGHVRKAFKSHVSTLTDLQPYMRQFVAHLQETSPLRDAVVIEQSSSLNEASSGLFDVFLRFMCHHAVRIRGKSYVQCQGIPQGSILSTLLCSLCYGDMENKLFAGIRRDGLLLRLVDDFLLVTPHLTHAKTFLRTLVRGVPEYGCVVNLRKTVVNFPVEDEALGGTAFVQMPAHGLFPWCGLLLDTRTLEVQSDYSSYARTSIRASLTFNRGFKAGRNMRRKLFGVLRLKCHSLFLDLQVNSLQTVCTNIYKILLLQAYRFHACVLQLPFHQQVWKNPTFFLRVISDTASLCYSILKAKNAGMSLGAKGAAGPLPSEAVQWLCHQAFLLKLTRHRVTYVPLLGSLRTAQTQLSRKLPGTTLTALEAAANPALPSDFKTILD
UniProt P54274: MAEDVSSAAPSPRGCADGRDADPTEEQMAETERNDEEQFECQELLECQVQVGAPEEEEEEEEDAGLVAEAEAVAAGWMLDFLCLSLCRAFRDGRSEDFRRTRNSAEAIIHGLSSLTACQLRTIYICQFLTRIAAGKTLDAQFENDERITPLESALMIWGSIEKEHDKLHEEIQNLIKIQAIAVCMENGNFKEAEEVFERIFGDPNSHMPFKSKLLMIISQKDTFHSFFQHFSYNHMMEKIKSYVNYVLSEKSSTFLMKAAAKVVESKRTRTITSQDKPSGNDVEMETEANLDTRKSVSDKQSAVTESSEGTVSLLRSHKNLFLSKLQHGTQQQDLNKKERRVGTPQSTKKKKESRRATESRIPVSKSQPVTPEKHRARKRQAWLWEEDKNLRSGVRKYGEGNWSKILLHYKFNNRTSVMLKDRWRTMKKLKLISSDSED

B2: PinX1 (endogenous 45 kDa protein of HeLa cells, or expressed from the PinX1 expression construct in HeLa cells) (protein)
chain: MSMLAERRRKQKWAVDPQNTAWSNDDSKFGQRMLEKMGWSKGKGLGAQEQGATDHIKVQVKNNHLGLGATINNEDNWIAHQDDFNQLLAELNTCHGQETTDSSDKKEKKSFSLEEKSKISKNRVHYMKFTKGKDLSSRSKTDLDCIFGKRQSKKTPEGDASPSTPEENETTTTSAFTIQEYFAKPVAALKNKPQVPVPGSDISETQVERKRGKKRNKEATGKDVESYLQPKAKRHTEGKPERAEAQERVAKKKCAPAEKQLRGPCWDQSSKASAQDAGDHVQPPEGRDFTLKPKKRRGKKKLQKPVEIAEDATLEETLVKKKKKKDSK
- binding [6]: binds
- binding [7]: binds

B3: PinX1 clones from the HeLa cDNA library fused to the GAL4 activation domain (yeast two-hybrid prey) (protein, not shown: large carriers)
chain: B2 chain
- binding [8]: binds

B5: Tin2 clone from the HeLa cDNA library fused to the GAL4 activation domain (yeast two-hybrid prey) (protein, UniProt Q9BSI4-2 1-354, looked up, not shown: large carriers)
chain: MATPLVAGPAALRFAAAASWQVVRGRCVEHFPRVLEFLRSLRAVAPGLVRYRHHERLCMGLKAKVVVELILQGRPWAQVLKALNHHFPESGPIVRDPKATKQDLRKILEAQETFYQQVKQLSEAPVDLASKLQELEQEYGEPFLAAMEKLLFEYLCQLEKALPTPQAQQLQDVLSWMQPGVSITSSLAWRQYGVDMGWLLPECSVTDSVNLAEPMEQNPPQQQRLALHNPLPKAKPGTHLPQGPSSRTHPEPLAGRHFNLAPLGRRRVQSQWASTRGGHKERPTVMLFPFRNLGSPTQVISKPESKEEHAIYTADLAMGTRAASTGKSKSPCQTLGGRALKENPVDLPATEQKE
- binding [8]: binds

B6: GST-PinX1-N (GST fusion of the N-terminal 142 amino acid fragment of PinX1) (protein, not shown: a dimerising Fc or GST)
chain: MSMLAERRRKQKWAVDPQNTAWSNDDSKFGQRMLEKMGWSKGKGLGAQEQGATDHIKVQVKNNHLGLGATINNEDNWIAHQDDFNQLLAELNTCHGQETTDSSDKKEKKSFSLEEKSKISKNRVHYMKFTKGKDLSSRSKTD
- binding [1]: binds
- binding [2]: binds
- binding [3]: binds
- binding [4]: binds
- binding [5]: binds

Now from value to binder:

- binding [1]: binds
- binding [2]: binds
- binding [3]: binds
- binding [4]: binds
- binding [5]: binds
B1: GST-PinX1-C (GST fusion of the C-terminal 74 amino acid fragment of PinX1, the telomerase inhibitory domain TID) (protein, not shown: a dimerising Fc or GST)
chain: CAPAEKQLRGPCWDQSSKASAQDAGDHVQPPEGRDFTLKPKKRRGKKKLQKPVEIAEDATLEETLVKKKKKKDSK

- binding [1]: binds
- binding [9]: binds
- binding [2]: binds
- binding [3]: binds
- binding [4]: binds
- binding [5]: binds
B4: GST-PinX1 (N-terminal GST fusion of full length PinX1) (protein, not shown: a dimerising Fc or GST)
chain: B2 chain
